Source: patent US20090269346A1
No constants are given. Whether binding was seen depends on the method and setting. Some entries that bind do so weakly or less than the wild type.

Amino acid sequences for entries named in this document (tags omitted). A change or cut given only in a name is not applied to a line headed by its entry. Residues count along the entry.
UniProt P98164, residues 1025-1102: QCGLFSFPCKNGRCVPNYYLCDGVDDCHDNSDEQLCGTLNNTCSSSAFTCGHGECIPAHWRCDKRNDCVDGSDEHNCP
UniProt P30533: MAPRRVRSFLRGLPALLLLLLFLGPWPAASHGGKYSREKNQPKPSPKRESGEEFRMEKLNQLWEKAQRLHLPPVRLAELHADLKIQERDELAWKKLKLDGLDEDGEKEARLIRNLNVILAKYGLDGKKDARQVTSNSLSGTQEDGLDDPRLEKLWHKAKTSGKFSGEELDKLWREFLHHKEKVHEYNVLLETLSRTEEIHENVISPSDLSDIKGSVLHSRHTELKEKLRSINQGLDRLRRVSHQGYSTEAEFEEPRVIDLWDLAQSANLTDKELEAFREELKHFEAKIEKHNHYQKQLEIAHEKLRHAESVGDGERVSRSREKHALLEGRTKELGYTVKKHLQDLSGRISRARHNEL

Molecular target: LRP2 CR89 (human) (UniProt P98164)
Test: solid-phase binding assay: CR protein coated on the plate, ligand titrated, anti-RAP polyclonal and HRP secondary, OD 450 nm

- binding: binds
Substance: RAP d3 E251K, K256A, K270E (from UniProt P30533 235-353) (ligand)
